Results on 3 sequences are retold here after paper PMC2672083.

For at least one entry, the source does not settle the construct or the ends of the probe. Tags and fusion partners may be left off the protein sequences shown.

Data set [1] has as its target T1, Har-POU (Helicoverpa armigera) (UniProt Q6R516).
T1 sequence (looked up): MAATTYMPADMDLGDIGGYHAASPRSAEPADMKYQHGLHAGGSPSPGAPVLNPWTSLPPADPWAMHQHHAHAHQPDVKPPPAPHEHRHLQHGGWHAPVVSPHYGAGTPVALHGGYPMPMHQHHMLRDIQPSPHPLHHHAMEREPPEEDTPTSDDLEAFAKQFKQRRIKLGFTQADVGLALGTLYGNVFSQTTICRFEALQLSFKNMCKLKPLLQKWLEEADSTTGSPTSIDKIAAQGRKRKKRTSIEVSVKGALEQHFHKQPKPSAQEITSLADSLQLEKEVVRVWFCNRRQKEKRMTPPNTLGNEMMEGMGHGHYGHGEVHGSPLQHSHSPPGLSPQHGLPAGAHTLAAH
The experiment in a line: EMSA. The conditions noted are these: 4 mM MgCl2, poly(dI-dC), 10 mM HEPES-K+ pH 7.9, 10% glycerol, 50 mM KCl, 4 mM MgCl2, 1 mM DTT, 0.5 mg/ml BSA, 0.1 mM PMSF, 1 ug poly(dI-dC), 10 fmol probe in 20 ul, 27 C, 30 min, 5% native PAGE, protein translated in vitro, residues 1-351.

Data set [2] addresses T1, Har-POU (Helicoverpa armigera). Put plainly: competition with a labelled probe. The conditions noted are these: 40-fold unlabeled H1 competes; 10 mM HEPES-K+ pH 7.9, 10% glycerol, 50 mM KCl, 4 mM MgCl2, 1 mM DTT, 0.5 mg/ml BSA, 0.1 mM PMSF, 1 ug poly(dI-dC), 10 fmol probe in 20 ul, 27 C, 30 min; 5% native PAGE; protein translated in vitro; residues 1-351; label: 32P (unlabeled as competitor).

In the case of “TCCCTGATTTACATAAGATTTCCATTCG (double strand) [H1]”, the binding result in data set [1] (label: 32P (unlabeled as competitor)) and in data set [2] was “binds” throughout.
On to “CTTGTATACATTGTTTGCACAAATGTTTG (double strand) [SA]”, for which the binding result in data set [1] (label: 32P) is on record as “binds”.
“CCCCTCATTTACATACATCCCCGTCCGAC (double strand) [S1]”: the binding result in data set [1] (label: 32P) is recorded as “binds”.
